{"source": "PubChem BioAssay AID1159584 (Peter MacCallum Cancer Centre, 2016)", "purpose": "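Genes whose loss is lethal only together with E-cadherin loss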 (primary screen)", "cell system": "human MCF10A breast epithelial cells, parental and CDH1-null", "reagent": "siRNA against human genes", "measurement": "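ATP luminescence (CellTiter-Glo) viability per line relative to mean mock wells over all plates, and the ratio of CDH1-null to parental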", "reading the numbers": "CDH1-null / parental viability ratio: higher = CDH1-null cells survive relatively better than parental", "note": "This is a random part of about 18,000 reagents tested. Further read-outs or replicates are left out here. No sequences are given here. The record does not give: the amount of reagent, the time to read-out."}
{"gene": "MACROH2A1 (GeneID 9555)", "CDH1-null / parental viability ratio": 1.29}
{"gene": "GNE (GeneID 10020)", "CDH1-null / parental viability ratio": 1.06}
{"gene": "RPL6 (GeneID 6128)", "CDH1-null / parental viability ratio": 1.38}
{"gene": "RXFP3 (GeneID 51289)", "CDH1-null / parental viability ratio": 1.41}
{"gene": "PLSCR4 (GeneID 57088)", "CDH1-null / parental viability ratio": 0.98}
{"gene": "KLHL10 (GeneID 317719)", "CDH1-null / parental viability ratio": 0.75}
{"gene": "CKM (GeneID 1158)", "CDH1-null / parental viability ratio": 0.65}
{"gene": "KRTAP17-1 (GeneID 83902)", "CDH1-null / parental viability ratio": 1.37}
{"gene": "ADGRE5 (GeneID 976)", "CDH1-null / parental viability ratio": 0.89}
{"gene": "ZNF555 (GeneID 148254)", "CDH1-null / parental viability ratio": 1.11}
{"gene": "CNN2 (GeneID 1265)", "CDH1-null / parental viability ratio": 1.14}
{"gene": "RNASET2 (GeneID 8635)", "CDH1-null / parental viability ratio": 1.09}
{"gene": "UBE3C (GeneID 9690)", "CDH1-null / parental viability ratio": 1.04}
{"gene": "ZNF502 (GeneID 91392)", "CDH1-null / parental viability ratio": 1.13}
{"gene": "PDE3B (GeneID 5140)", "CDH1-null / parental viability ratio": 0.83}
{"gene": "CCAR2 (GeneID 57805)", "CDH1-null / parental viability ratio": 0.88}
{"gene": "CHD1 (GeneID 1105)", "CDH1-null / parental viability ratio": 0.92}
{"gene": "FKBP2 (GeneID 2286)", "CDH1-null / parental viability ratio": 1.08}
{"gene": "PODN (GeneID 127435)", "CDH1-null / parental viability ratio": 1}

Already shown: 5 of the entries above.
{"gene": "RNASET2 (GeneID 8635)", "CDH1-null / parental viability ratio": 1.09}
{"gene": "UBE3C (GeneID 9690)", "CDH1-null / parental viability ratio": 1.04}
{"gene": "ZNF502 (GeneID 91392)", "CDH1-null / parental viability ratio": 1.13}
{"gene": "PDE3B (GeneID 5140)", "CDH1-null / parental viability ratio": 0.83}
{"gene": "CCAR2 (GeneID 57805)", "CDH1-null / parental viability ratio": 0.88}

Continued:
{"gene": "CCKAR (GeneID 886)", "CDH1-null / parental viability ratio": 0.87}
{"gene": "TBX20 (GeneID 57057)", "CDH1-null / parental viability ratio": 1}
{"gene": "COMMD10 (GeneID 51397)", "CDH1-null / parental viability ratio": 0.81}
{"gene": "CTNS (GeneID 1497)", "CDH1-null / parental viability ratio": 1.2}
{"gene": "TALDO1 (GeneID 6888)", "CDH1-null / parental viability ratio": 1.02}
{"gene": "NKG7 (GeneID 4818)", "CDH1-null / parental viability ratio": 1.13}
{"gene": "CXXC1 (GeneID 30827)", "CDH1-null / parental viability ratio": 0.87}
{"gene": "OR10J1 (GeneID 26476)", "CDH1-null / parental viability ratio": 1.26}
{"gene": "SLC26A3 (GeneID 1811)", "CDH1-null / parental viability ratio": 1.01}
{"gene": "TIMP1 (GeneID 7076)", "CDH1-null / parental viability ratio": 1.01}
{"gene": "KIF24 (GeneID 347240)", "CDH1-null / parental viability ratio": 1}
{"gene": "LINC00452 (GeneID 643365)", "CDH1-null / parental viability ratio": 0.72}
{"gene": "TMEM97 (GeneID 27346)", "CDH1-null / parental viability ratio": 0.85}
{"gene": "ANKRD54 (GeneID 129138)", "CDH1-null / parental viability ratio": 0.8}
{"gene": "PRDM8 (GeneID 56978)", "CDH1-null / parental viability ratio": 1}
{"gene": "MB (GeneID 4151)", "CDH1-null / parental viability ratio": 1.01}
